In this assay the target is Ll-AbiK T151W/T369W (Lactococcus lactis) (UniProt Q48614). The assay can be described thus: SEC-MALS; Superdex 200 Increase 10/300 GL, 100 μl samples, 20 mM HEPES pH 7.0, 400 mM NaCl, 0.5 mM EDTA, 1 mM DTT; both purified. (In general: SEC sorts molecules by how far they enter the pores of the column.)

Results are given in words; binding and its absence hold for the method and conditions named.

B1: Ll-AbiK T151W/T369W (enzyme, UniProt Q48614 1-599)
chain: MKKEFTELYDFIFDPIFLVRYGYYDRSIKNKKMNTAKVELDNEYGKSDSFYFKVFNMESFADYLRSHDLKTHFNGKKPLSTDPVYFNIPKNIEARRQYKMPNLYSYMALNYYICDNKKEFIEVFIDNKFSTSKFFNQLNFDYPKTQEITQWLLYGGIKKLHLDLSNFYHTLYTHSIPWMIDGKSASKQNRKKGFSNTLDTLITACQYDETHGIPTGNLLSRIITELYMCHFDKQMEYKKFVYSRYVDDFIFPFTFENEKQEFLNEFNLICRENNLIINDNKTKVDNFPFVDKSSKSDIFSFFENITSTNSNDKWIKEISNFIDYCVNEEHLGNKGAIKCIFPVITNTLKQKKVDTKNIDNIFSKRNMVWNFNVFEKILDLSLKDSRLTNKFLTFFENINEFGFSSLSASNIVKKYFSNNSKGLKEKIDHYRKNNFNQELYQILLYMVVFEIDDLLNQEELLNLIDLNIDDYSLILGTILYLKNSSYKLEKLLKKIDQLFINTHANYDVKTSRMAEKLWLFRYFFYFLNCKNIFSQKEINSYCQSQNYNSGQNGYQTELNWNYIKGQGKDLRANNFFNELIVKEVWLISCGENEDFKYLN
On to B1, for which the binding entry is “no binding”.

Values taken from PMC9508834, “Mechanism of protein-primed template-independent DNA synthesis by Abi polymerases” (Nucleic Acids Research, 2022).
